Data reported in US12178838B2, “Synthetic neuromodulatory peptides” (Lactocore, Inc., priority 2019, dated 2024).
“And” between values parts separate entries of the source, which are not always exact repeats. Identical values can stand only once.

Assays:
BALB/C mice = assay: Elevated Plus Maze test in mice; type: in vivo; settings: ip; FQSE 1 mg/kg; Diazepam 0.75 mg/kg
Experimental: After an adaptation period, the test substance was intraperitoneally injected into mice. Behavioral parameters were measured in 30 minutes after injection. The tests were administered as follows: day 1—the Open field test, day 3—the Elevated plus maze test, day 5—the Marble burying test, days 12-13—the Porsolt swim (two-day modification) test.
In the elevated plus maze test, a test arena includes two open and two closed arms crossed in the middle. The arm length is 30 cm, the height of the closed arms side walls is 15 cm. The entire installation is raised 70 cm above the floor. The open arms have bright uniform illumination of about 400 lux, and the closed arms have illumination of about 30-40 lux. Mice were placed at the junction of the four arms of the maze (center), facing an open arm. […] The same set of parameters, as well as a latent period and the duration of stay, were measured for the central sector, open and closed arms separately. […]
The second group of parameters includes a time on open arms (in seconds) (FIG. 35), a number of open arms entries (FIG. 36), a number of risk behavior (number of rearings and dangle events, as shown in FIG. 37]), and an anxiety index (FIG. 38). The anxiety index (AI) was calculated using the following formula: AI=100*(1−(time on open arms/total test time+open arms entries/total number of entries)/2)

zebrafish (Danio rerio) = assay: Light/dark box test in zebrafish; type: in vivo; settings: ip; FQSE 10 mg/kg; diazepam 5 mg/kg
Experimental: The tested substances were injected into the zebrafish intraperitoneally (ip) using an insulin syringe (0.5 ml, 30 g) 10 minutes before the test. The saline solution (0.9% NaCl) was used as a solvent. Anesthesia and immobilization of the animals were achieved by placing them in water at a temperature of 10° C. Control group fish received intraperitoneal injections of an equivalent volume of solvent, also after going through a pre-cooling procedure.
A base, back, and side walls of the aquarium were made of matte black plastic; the front panel (shorter wall) was made of transparent Plexiglas. The setup for the Light/Dark preference test consisted of three main parts: a launch compartment, a light compartment made of white plastic, and a dark compartment made of black plastic. […]
The light/dark box (LDB) test was performed as described in Maximino et al., 2011. The zebrafish was placed in a light compartment of an LDB using a net, the camera was switched on simultaneously, and the behavior of the zebrafish was recorded for 5 minutes. […] During the processing of records, the residence time and the number of visits to the light and dark compartments of the test setup were recorded, as well as the latent period of visiting both compartments.

[1] = tested on: Wistar rats after chronic unpredictable mild stress; assay: CUMS model: Female Urine Sniffing Test; type: in vivo; settings: FQSE 0.5 mg/kg i.n.; Diazepam 0.5 mg/kg i.p.; 8 injections
Experimental: (§1) During stress, the animals were placed in individual cells and exposed to stressful conditions each day for 26 days. Two stressors were used daily, applied in the following order: • Day 1. 10 am-6 pm, rats were placed in a cold room for an hour. From 6 PM to 10 am the lights were turned on and off every 2 hours. • Day 2. 10 am-6 pm, cage tilted to 45°. From 6 PM to 10 am water deprivation. • Day 3. 10 am-6 pm, stroboscopic light. From 6 PM to 10 am the light was left on overnight. • Day 4. 10 am-6 pm, wet bedding. From 6 PM to 10 am the animals were put in a small mouse cage. • Day 5. 10 am-6 pm, no bedding. From 6 PM to 10 am the lights were turned on and off every 2 hours. • Day 6. 10 am-6 pm, a new rat was placed in the cage (6-month-old). […]
The FUST test was used to evaluate anhedonia, sexual motivation, and exploratory behavior associated with a depressive condition in rodents (Gould et al. (2009). Mood and anxiety related phenotypes in mice. Humana Press). […] The latency of the approach to the swab, the time, and the number of sniffs were recorded. […] The latency of the approach to the swab, the time and the number of sniffs were also recorded. To determine the preference, an index was calculated using the formula: time spent sniffing urine*100%/total sniffing time. […] It is expressed as a decreased latency of approach to the moistened swab and a longer duration of the interaction. […]

[2] = tested on: FQSE (SEQ ID NO:10)-specific binding sites in the rat cortex; assay: Radioligand analysis with [3H] FQSE on rat cortex membranes
Experimental: After decapitation, the tissues were immediately frozen in liquid nitrogen and stored in a low-temperature refrigerator at −80° C. On the day of the experiment, brain tissue (cortex, about 300 mg) was homogenized in a Teflon-glass Potter homogenizer 1:25 W:V in the buffer (50 mM Tris-HCl, pH 7.4). The homogenate was centrifuged at 40,000 g for 20 min. The obtained precipitate was homogenized in a buffer (50 mM Tris-HCl; pH=7.4) and centrifuged again at 40,000 g for 20 min. A similar procedure was performed again. The precipitate was resuspended in 15 ml of the same buffer and used for the radioligand analysis.
The incubation mixture (final volume 0.5 ml) contained 50 μl […]
At the end of the incubation, the samples were filtered through Ge/C glass fiber filters (Whatman) previously moistened with 0.3% polyethyleneimine for 2 hours at room temperature. Each tube was washed twice with cold buffer, then the filters were washed twice with the same volume of buffer.
The filters were air-dried and transferred to scintillation vials. Filters were poured with 5 ml of toluene-based scintillation liquid (4 g PPO, 0.2 g POPOP per liter of toluene).
To construct the curves of the radioactive ligand's displacement each concentration of the test substance was taken in 3 replications. […]

[3] = tested on: Wistar rats after chronic unpredictable mild stress; assay: CUMS model: Sucrose Preference Test; type: in vivo; settings: diazepam 0.5 mg/kg i.p.; FQSE 0.05 and 0.5 mg/kg i.n.; 16 injections
Experimental: as §1, with “(6-month-old). From 6 PM to 10 am the light was left on overnight. • Day 7. 10 am-6 pm, white noise.” for “(6-month-old).”
A test was used to determine the preference for a sucrose solution to assess the state of anhedonia (rejection of pleasure), a key symptom of depression. […] The drinkers were pre-weighed, and the volume of liquid consumed was calculated based on the mass difference. The measured parameters included the volume of regular water, sweet water, and the total volume of liquid consumed. The preference index was calculated using the formula: The volume of sweet water consumed*100%/Total volume of liquid consumed. […]

CN1C(=O)CN=C(c2ccccc2)c2cc(Cl)ccc21 [Diazepam]
Anxiety index (BALB/C mice): 73±4.7% | decrease in the time spent in the dark compartment relatively to the control group (zebrafish (Danio rerio)): approximately 40% | relative increase in the time spent in the light compartment compared with the control group (zebrafish (Danio rerio)): approximately 210% | female urine preference index [1]: had no effect | Amount of bound [3H] FQSE after pre-incubation compared to control level [2]: 90% and 86% | sucrose preference index [3]: no significant changes
